Reference: PubChem BioAssay AID1224826 (NIAID, 2016)
Screen: 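Regulators of Tlr4 signalling leading to Tnf-alpha expression in macrophages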 (primary screen). Cells: RAW264.7 G9 macrophages from mouse bearing reporters for p65 (GFP) and the Tnf promoter (mCherry). Reagents: siRNA pool against mouse genes, 100 nM. Time to read-out: 16 h of LPS stimulation, after 2 days of siRNA transfection. Challenge: bacterial lipopolysaccharide (Salmonella minnesota R595), 10 ng/ml. Detection: 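Nuclear mCherry signal of the Tnf promoter reporter measured by imaging after background removal, scaled to each plate median and turned into robust z-scores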. Reading the numbers: Tnf reporter robust z-score: higher = stronger Tnf promoter reporter signal after LPS. Rule for the call: 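Called active when robust z-score is at most -1.3, matching the median of the Tlr4 knock-down control, or over 3; control wells and wells with under 50 cells never active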. Meaning of the calls: active = Tnf reporter clearly lowered or raised; inactive = no clear change in Tnf reporter.
Shown is an unselected part of about 17,000 reagents tested. Of all reagents, about 1,110 (6.6%) were called active. 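Active means lowered or raised reporter signal; replicate intensities are raw and not normalised per plate.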 Entries without a mark were called inactive. Not all columns of the deposit are shown. No sequences are given here.

Against Slpi (GeneID 20568), the values are Tnf reporter robust z-score -0.61; fewer than 50 cells in well enough cells in well. With knock-down of Foxp1 (GeneID 108655), the screen gave Tnf reporter robust z-score 0.33; fewer than 50 cells in well enough cells in well. Against Nbeal1 (GeneID 269198), the entry reads Tnf reporter robust z-score 0.99; fewer than 50 cells in well enough cells in well. After knock-down of Amy2a5 (GeneID 109959) the results were Tnf reporter robust z-score -0.74; fewer than 50 cells in well enough cells in well. Depletion of Phospho2 (GeneID 73373) gave: Tnf reporter robust z-score 1.07; fewer than 50 cells in well enough cells in well. After knock-down of Leprot (GeneID 230514), the screen gave Tnf reporter robust z-score -0.44; fewer than 50 cells in well enough cells in well.

Foxp2 (GeneID 114142) gave Tnf reporter robust z-score 0.81; fewer than 50 cells in well enough cells in well.

Part of the list above, set out differently.
target gene,Tnf reporter robust z-score,fewer than 50 cells in well
Leprot (GeneID 230514),-0.44,enough cells in well
Foxp2 (GeneID 114142),0.81,enough cells in well

Further entries follow.
With knock-down of Zmat1 (GeneID 215693) the results were Tnf reporter robust z-score -0.06; fewer than 50 cells in well enough cells in well. Knock-down of Cenpc1 (GeneID 12617) came out at: Tnf reporter robust z-score -0.62; fewer than 50 cells in well enough cells in well. Silencing of 4921504E06Rik (GeneID 70909) came out at: Tnf reporter robust z-score -1.34 (active); fewer than 50 cells in well enough cells in well. For Stx2 (GeneID 13852), the entry reads Tnf reporter robust z-score -0.39; fewer than 50 cells in well enough cells in well. After knock-down of E2f5 (GeneID 13559), the screen gave Tnf reporter robust z-score -0.41; fewer than 50 cells in well enough cells in well. Silencing of Cga (GeneID 12640) came out at: Tnf reporter robust z-score 1.32; fewer than 50 cells in well enough cells in well.

Silencing of Psmb2 (GeneID 26445) came out at: fewer than 50 cells in well fewer than 50 cells per well; well left out of calls.
